Assay results taken from article PMC11703099.
No constants are given. Whether binding was seen depends on the method and setting. In cells and extracts the contact can be indirect. A yes stands for co-enrichment or nearness to the bait. Other partners may have been found.

Chains of the proteins cited; added tags and fusions are not shown. Lines headed by an entry give the natural chain unless they say otherwise; changes in a name come on top.
UniProt Q9U263: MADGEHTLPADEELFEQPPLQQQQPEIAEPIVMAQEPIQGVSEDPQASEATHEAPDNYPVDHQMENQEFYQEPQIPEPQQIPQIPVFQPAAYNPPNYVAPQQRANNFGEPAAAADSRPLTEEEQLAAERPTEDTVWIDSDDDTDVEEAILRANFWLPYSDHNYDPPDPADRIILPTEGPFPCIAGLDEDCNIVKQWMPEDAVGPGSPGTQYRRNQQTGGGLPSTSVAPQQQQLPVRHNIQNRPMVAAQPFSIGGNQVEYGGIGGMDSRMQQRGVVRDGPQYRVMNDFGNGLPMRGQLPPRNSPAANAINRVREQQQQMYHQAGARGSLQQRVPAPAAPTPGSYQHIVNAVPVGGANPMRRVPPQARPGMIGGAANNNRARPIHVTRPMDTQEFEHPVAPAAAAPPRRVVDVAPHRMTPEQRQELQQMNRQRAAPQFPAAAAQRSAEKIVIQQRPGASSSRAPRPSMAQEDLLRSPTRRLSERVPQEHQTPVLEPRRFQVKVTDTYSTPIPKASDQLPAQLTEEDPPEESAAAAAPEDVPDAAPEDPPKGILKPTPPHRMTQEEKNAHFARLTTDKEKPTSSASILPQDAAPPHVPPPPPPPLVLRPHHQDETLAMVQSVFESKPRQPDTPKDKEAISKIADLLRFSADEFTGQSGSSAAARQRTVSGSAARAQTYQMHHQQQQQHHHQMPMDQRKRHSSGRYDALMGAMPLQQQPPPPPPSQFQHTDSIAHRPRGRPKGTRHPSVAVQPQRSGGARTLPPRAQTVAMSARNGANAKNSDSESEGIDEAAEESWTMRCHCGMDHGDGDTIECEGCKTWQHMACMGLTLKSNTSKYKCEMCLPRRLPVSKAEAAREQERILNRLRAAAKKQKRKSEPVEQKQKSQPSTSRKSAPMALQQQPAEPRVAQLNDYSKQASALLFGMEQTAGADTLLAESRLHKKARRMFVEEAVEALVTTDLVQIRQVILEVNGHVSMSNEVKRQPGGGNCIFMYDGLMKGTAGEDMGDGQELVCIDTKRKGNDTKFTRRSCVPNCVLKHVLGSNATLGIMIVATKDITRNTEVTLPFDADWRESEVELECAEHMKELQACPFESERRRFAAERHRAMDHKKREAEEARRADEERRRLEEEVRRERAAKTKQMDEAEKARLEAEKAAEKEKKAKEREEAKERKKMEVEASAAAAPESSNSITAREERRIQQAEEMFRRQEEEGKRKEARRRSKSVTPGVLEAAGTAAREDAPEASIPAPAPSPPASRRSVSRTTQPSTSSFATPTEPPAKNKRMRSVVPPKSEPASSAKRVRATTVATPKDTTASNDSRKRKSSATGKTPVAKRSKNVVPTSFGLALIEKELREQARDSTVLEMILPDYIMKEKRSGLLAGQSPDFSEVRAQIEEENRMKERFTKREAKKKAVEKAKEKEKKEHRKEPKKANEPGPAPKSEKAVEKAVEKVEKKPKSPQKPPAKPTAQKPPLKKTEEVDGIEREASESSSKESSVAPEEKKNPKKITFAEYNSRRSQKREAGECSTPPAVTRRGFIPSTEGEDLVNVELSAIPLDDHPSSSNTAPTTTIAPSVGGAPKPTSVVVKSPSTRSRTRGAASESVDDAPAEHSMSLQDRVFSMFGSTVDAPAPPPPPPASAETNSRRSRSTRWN
UniProt Q9BL48: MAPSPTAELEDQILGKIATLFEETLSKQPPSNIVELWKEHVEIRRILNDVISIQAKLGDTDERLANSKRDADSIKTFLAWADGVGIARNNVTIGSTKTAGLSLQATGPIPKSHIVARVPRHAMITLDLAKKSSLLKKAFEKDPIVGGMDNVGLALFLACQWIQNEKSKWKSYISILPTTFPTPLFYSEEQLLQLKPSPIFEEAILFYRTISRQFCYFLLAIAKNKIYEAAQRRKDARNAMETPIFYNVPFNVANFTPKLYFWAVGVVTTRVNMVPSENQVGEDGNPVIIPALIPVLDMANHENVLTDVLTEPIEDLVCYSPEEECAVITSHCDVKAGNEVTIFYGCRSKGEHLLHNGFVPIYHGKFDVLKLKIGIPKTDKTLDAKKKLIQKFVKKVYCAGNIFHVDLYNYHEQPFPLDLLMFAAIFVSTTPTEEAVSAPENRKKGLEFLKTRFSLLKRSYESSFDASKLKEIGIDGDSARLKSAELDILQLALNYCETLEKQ

Target: SET-26::GFP (WT background) (C. elegans) (UniProt Q9U263)
Assay: affinity purification with mass spectrometry; anti-GFP immunoprecipitation of SET-26::GFP from adult worms fed L4440 control or ulp-2(RNAi), label-free LC-MS/MS; N2 as control; 3 biological replicates

binding: binds
Substance: SET-27 (endogenous) (from UniProt Q9BL48)
